In experiment [1] the target is T1, MIC60 (mitofilin), core MICOS component (mouse (endogenous in mouse liver, heart, MEF and MAF mitochondria)) (UniProt Q8CAQ8).
T1 sequence: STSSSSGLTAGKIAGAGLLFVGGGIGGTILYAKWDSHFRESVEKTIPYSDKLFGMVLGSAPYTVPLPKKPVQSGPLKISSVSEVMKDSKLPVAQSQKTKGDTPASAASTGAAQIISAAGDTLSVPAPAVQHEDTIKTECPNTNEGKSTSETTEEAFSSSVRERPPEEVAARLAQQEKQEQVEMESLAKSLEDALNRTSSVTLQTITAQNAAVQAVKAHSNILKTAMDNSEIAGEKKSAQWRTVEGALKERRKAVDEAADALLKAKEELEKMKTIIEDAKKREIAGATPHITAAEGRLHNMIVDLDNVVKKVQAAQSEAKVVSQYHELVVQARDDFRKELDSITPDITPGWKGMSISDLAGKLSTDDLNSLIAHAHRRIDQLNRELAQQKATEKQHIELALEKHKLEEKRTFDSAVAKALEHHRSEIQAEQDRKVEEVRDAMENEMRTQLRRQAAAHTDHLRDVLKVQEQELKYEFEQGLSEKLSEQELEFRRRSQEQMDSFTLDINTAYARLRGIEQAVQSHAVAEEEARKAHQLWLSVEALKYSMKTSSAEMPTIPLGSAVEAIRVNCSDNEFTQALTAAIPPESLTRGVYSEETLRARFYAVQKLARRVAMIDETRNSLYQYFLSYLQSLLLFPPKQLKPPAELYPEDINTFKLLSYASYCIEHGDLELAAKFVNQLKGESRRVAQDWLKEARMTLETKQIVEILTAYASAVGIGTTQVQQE
Put plainly: co-IP; mouse liver mitochondrial lysates (250 μg) immunoprecipitated with anti-MIC60 coupled to Protein A agarose beads; SDS-GE and immunoblot.

For experiment [2], the target named is T1, MIC60 (mitofilin), core MICOS component (mouse (endogenous in mouse liver, heart, MEF and MAF mitochondria)). Briefly: co-IP; DSP-treated mitochondria, OPA1 co-immunoprecipitated with MIC60 (Figure S2B).

Results are given in words; binding and its absence hold for the method and conditions named. Binding seen in cells or lysates may run through a third protein. Binding calls can cover weak binding; strength is not graded here.

On to Optic atrophy 1 (OPA1), for which the binding result in experiment [1] and in experiment [2] was “binds” in each case.

The record behind these values is publication PMC5186903.
